Experimental findings from PubChem BioAssay AID1347426 (Functional Genomics Laboratory (NCATS/FGL), 2020) are described below.

In all, about 31,000 sequences went through this assay and about 1,400 (4.5%) were called active.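 Rule for the calls: active = median seed-adjusted z-score above 1 or below -1; inactive = the rest.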 The list shows a part of the results.

This experiment is described as follows: Novel Modifiers of Survival Motor Neuron (SMN) Protein: Gene Identification via Genome-wide siRNA Screen.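 Note: luminescence tracks full-length SMN protein made from the SMN2 reporter.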 The conditions noted are these: HEK293T SMN2-luciferase reporter, siRNA knockdown, 72 h; actives lie on both sides. Put shortly:
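siRNA screen, 10418 genes ×3 siRNAs; 1 pmol/well, lipid reverse transfection into HEK293T SMN2-luc reporter line. 72 h, 37 °C, 5% CO2; ONE-Glo readout. Data: neg-ctrl normalized, log10, MAD; hit = MAD >1.0 or < -1.0.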
(A reporter such as luciferase makes a cellular process visible.)
As for CGGAAAAUCAGCAACAUCATT against EPS8L2, the median seed-adjusted z-score is inactive: -0.497.
In the case of CGAGGAGCCUGCCUUCUUUTT against SSTR3 it was inactive: 0; in that of GCAAGAAGGAUGAAUCGGATT against PBRM1, inactive: -0.118; in that of GAGAUGAUCCUGAAACGCATT against ARL4C, inactive: -0.61.
Next, AGGAGCUUGUUGAUCCCUATT against SLC7A8: inactive: -0.134; CACCAGCUGUUAUAUUAAATT against LHX8: inactive: 0.
Regarding GGAAUGUCCAGAGAAGUUATT against ZNF670, the median seed-adjusted z-score is inactive: 0.
In the case of GGUUGAAGAGAGUAAAGAUTT against SNAP25 it was inactive: 0; in that of GGGUAUCCAUCAUCAAUCATT against WHSC1L1, inactive: -0.283.
For GCCCAACAAGUGUACGUUUTT against GLIS3, the median seed-adjusted z-score was inactive: -0.00906.
For CCAUCAUCCGAAACGGUCATT against ATP2B4, the median seed-adjusted z-score is inactive: 0.
As to GAUGUUCAGUCAAAGUUCATT against ZNF594, the median seed-adjusted z-score is inactive: 0.491.
As for GGAUGGUCGGAUUCUGAAATT against ITPKC, the median seed-adjusted z-score is inactive: 0.218.
In the case of GGUUCCAAGAGGAUGAAUATT against ZNF502 it was inactive: 0.348.
In the case of CCUUGCCUCUAUGAGAUCATT against CHCHD2 it was inactive: 0.0884; in that of GAGGUCAUCUGCAAUAGUATT against CHST2, inactive: 0.
As to CAGUGACCCGGAUCCUCUATT against RHCG, the median seed-adjusted z-score is inactive: 0.375.
In the case of ACAUCAAUCCUGAAAUGCATT against TFEB, the median seed-adjusted z-score was inactive: 0.34.
Next, CAAACCAUAUCUUACCGUUTT against PLCB1: inactive: 0.0735; GCAUUAUUGUUGGGCUAUUTT against MORF4L2: inactive: 0.389; GCAUCGAAGGAUUCAUACATT against ZNF354A: inactive: 0.401.
As to GGGAGCACCUGAAUCCUAATT against MUS81, the median seed-adjusted z-score was inactive: 0.
Regarding CGGAAAGACAGGUCGAAAATT against ZCCHC4, the median seed-adjusted z-score was inactive: -0.0614.
Next, CCAAGGCUGUCAUUUUAUATT against WRNIP1: inactive: 0.00972.
In the case of GCUCAUCCACUAUAACCAUTT against CA10 it was inactive: 0.255; in that of AAACCUUGCUUUAUAGGAATT against NPFFR2, inactive: 0.0554.
In the case of GGUUCUCAGUAGUCGAUUUTT against CUL9 it was inactive: 0.399; in that of GAAAGACUCUAAUCAAAGUTT against ZNF594, inactive: 0.491.
Take CCACUUGUCUGUGAAUUCATT against MPN2: the median seed-adjusted z-score is inactive: 0.108.
Next, CUGAUUUUCUCAAUAGUGATT against ZNHIT3: inactive: -0.311.
As for UGACAACACUCGCAUGACATT against KRT9, the median seed-adjusted z-score was inactive: 0.545.
With GCAAUCUUGUUGUACACCATT against ZNF432, the median seed-adjusted z-score is inactive: -0.124.
Take GCAUGACCAUAAGAUCCUATT against NUAK2: the median seed-adjusted z-score was inactive: -0.0601.
In the case of CCAGGAAACAUUGCCGUAATT against GPR111, the median seed-adjusted z-score was inactive: 0.
As for CGAGUACUGUCUCAAGGUATT against TTC9B, the median seed-adjusted z-score is inactive: -0.272.
In the case of CCAGCUUCGGACAACAGUATT against MTSS1 it was inactive: 0.175.
In the case of GAUUCAGCGAUAUUGCAAATT against RAB23 it was inactive: 0.45; in that of CCAGCUCUUCUCUACCACATT against PAQR7, inactive: -0.0406; in that of GCUUCAGAGUGUGAAGUCATT against TXN, inactive: -0.195.
Next, CUAUGGUACGCGAUCGUCATT against HERC2: inactive: 0.98; CAGUAGAGACAAACAUUUUTT against ZNF394: inactive: -0.462; CACGUAGAAUUAAGACGGATT against VPS4B: inactive: -0.0992.
With CAACCGGAAUGGGAAAGUUTT against TXNDC1, the median seed-adjusted z-score is inactive: 0.458.
In the case of ACAAAAUUGCUACAUCAAATT against ECHDC1 it was inactive: 0.554; in that of AGAUGGUGUCCAUCAGUAATT against EMG1, inactive: -0.0627.
In the case of GCACCAAAGCUUACCGUGATT against STX8 it was inactive: 0.475; in that of GCACUUUGCUUAUCCCGGATT against AGK, inactive: -0.312.
As for GAGGGAAAGCAAAAGAGUATT against HCCS, the median seed-adjusted z-score was inactive: 0.00254.
In the case of UCUCUUUACCGACAAUAUATT against DIABLO it was inactive: 0.913; in that of GGAGAACUGUCAAAGGUCATT against NDUFA8, inactive: -0.752.
Next, CGACUUCAUUGUAAAGAAATT against LIPF: inactive: 0.54; CGAUUACCCGAAUCCGUCATT against RYR3: inactive: 0; GGUCAUAUCUGUUUAUCCATT against UBE2W: inactive: -0.655.
With GGUAAUAGCUGAGCAUGCATT against ETFA, the median seed-adjusted z-score is inactive: -0.0619.
Consider GGUGAUCCUAAAAACCGAATT against AKAP3, for which the median seed-adjusted z-score is inactive: 0.0138.
Next, AGGACAAGCGGGACCUGAATT against MGAT3: inactive: -0.118; GCAACCUUCUCAUCGAGUATT against TGM2: inactive: 0.413.
In the case of CUUUGUUAGUCCUAAAGAATT against IGF2BP3 it was inactive: -0.636.
For CGACCACUCAUCAAGCCCATT against GATA2, the median seed-adjusted z-score is inactive: 0.623.
As to CAACGGUUGAAAAACGUAATT against ZNF285A, the median seed-adjusted z-score was inactive: 0.148.
In the case of CCGUUGCUCUAUCUUCGUATT against SETBP1, the median seed-adjusted z-score was inactive: 0.0232.
For the sequence GCUAGACACCGGACCAAAATT against MMP28, the median seed-adjusted z-score is inactive: 0.862.
As to AGUGACAACCUUCGAGGUATT against PCDH11Y, the median seed-adjusted z-score was inactive: 0.186.
For GCACUGCAAGGGAAAGAAATT against DNM1, the median seed-adjusted z-score is inactive: 0.217.
Next, CACAUUAAAGUGUAAAGAATT against PIP3-E: inactive: 0.676.
Turning to GAAUGUUCCCAAGCUCUCATT against PLA2G7, the median seed-adjusted z-score was inactive: 0.292.
As to AGGAGAAUCUGGAUCCGCATT against TGM6, the median seed-adjusted z-score is inactive: 0.0811.
In the case of CGCAUUCUCCAGUCGCACATT against KRT81 it was inactive: -0.0955; in that of GAAUCUGGACAGUACCACUTT against CSRP1, inactive: -0.312; in that of GGUUACUACCUGAUUCAGATT against GLRA1, inactive: 0.
As to GACAAUCACUGAACGCCGATT against APOE, the median seed-adjusted z-score is inactive: 0.0321.
In the case of GUCUCUAAACCAAACCUGATT against ZNF506 it was inactive: -0.235; in that of GGCUUAACCUGCUAGAAAATT against PAQR9, inactive: 0.116.
In the case of CACUCUAAGCAUAACUAAATT against ABL1 it was inactive: -0.181; in that of CCUGACAACCAGUACCUUATT against IFIT2, inactive: -0.0205.
With GGGAGACCUCGAUCGUGAATT against RASA4, the median seed-adjusted z-score was active: -1.11.
In the case of GGACGGUGGAGAACUCUUUTT against MAPKAPK2, the median seed-adjusted z-score was inactive: -0.543.
With GCUUAGCUGUCUUUCGUUUTT against GGCX, the median seed-adjusted z-score is inactive: -0.362.
In the case of GGUGAACUACUACUAGAUATT against CAB39, the median seed-adjusted z-score was inactive: -0.144.
Regarding ACAUAUUCACGGCCUAUAATT against AJAP1, the median seed-adjusted z-score is inactive: 0.488.
For GUAUAAUCCUCAGAGCAAATT against CXXC1, the median seed-adjusted z-score is inactive: -0.841.
In the case of GCACUUACCAAGUUGGAUATT against ADSS it was inactive: -0.272; in that of GAGAUGGACUAAUAGGCAATT against COL4A6, inactive: 0.0681; in that of GCCGCAAACCUAUACCCUUTT against SCRT2, inactive: 0.404.
In the case of GCAUUAGAAUAAUUCGUGATT against SLTM it was inactive: 0.547; in that of GGUUCCAACAAAAGACUUUTT against PSMA3, inactive: -0.81; in that of CCACCCUACUAUGCGCACATT against GJA3, inactive: 0.833.
For the sequence AGAAGAUAGUGGAUAAUCUTT against PPCS, the median seed-adjusted z-score is inactive: 0.
Regarding CAAGGGUACUGUUCUCCUATT against SLC4A1, the median seed-adjusted z-score was inactive: -0.861.
Consider AGUUUAUGGAGAGAAGAGATT against FBL, for which the median seed-adjusted z-score is inactive: -0.0592.
In the case of AAGAGAAGAUCAAUAUUUATT against TRIM54 it was inactive: -0.219; in that of GGCUUGCUGUAAUUACCCATT against ABCB1, inactive: -0.384; in that of GGAGCUUUAUAACAACCUUTT against ZNF282, inactive: 0.274.
Take GAGUCUUCUUGGUACCCAATT against NCAN: the median seed-adjusted z-score was inactive: -0.391.
Consider GAGUUAAGUGAUAAGUAUATT against ZNF639, for which the median seed-adjusted z-score was inactive: 0.182.
With GAGUGUCCGUGGUUAGGUATT against BACH1, the median seed-adjusted z-score was inactive: -0.404.
For the sequence GGUAAACUCAAUGCACAGATT against ELAC1, the median seed-adjusted z-score was inactive: 0.967.
In the case of GAGCUGAAUGUUAUGUUUATT against RAB6A it was inactive: 0.102.
Turning to GCACCAUACAGGAAGAUUATT against MRCL3, the median seed-adjusted z-score is inactive: -0.00909.
In the case of CGAAUACCUAAAACGUAUATT against NAE1 it was inactive: -0.453.
With CACUGGUACGACUCGCUUATT against RHPN1, the median seed-adjusted z-score was inactive: 0.161.
Next, GGAUGUCCAGAGGCACUAATT against POLA2: inactive: -0.114; CAAUGGUCCAAGUCUAACATT against EEF1E1: active: -1.45; GGAAGAUGGUUAUUGACAUTT against PDE4B: inactive: 0.546.
Regarding GGAGAUCUCAGACGAAUUATT against AGA, the median seed-adjusted z-score was inactive: -0.0433.
With GAUAUAAAGUCAUGAAGAATT against USP30, the median seed-adjusted z-score was inactive: -0.646.
Next, GCAGUACACUACCAACAGATT against ALAS1: active: -1.15; CACCAUGAAUCUUUCGAAATT against MAP7: inactive: -0.22.
